Source: doi:10.1101/2025.06.18.660491
Results are given in words; binding and its absence hold for the method and conditions named. Binding seen in cells or lysates may run through a third protein. A yes stands for co-enrichment or nearness to the bait. Other partners may have been found.

By UniProt entry, the sequences of proteins in these tests, tags left out.
UniProt O15027: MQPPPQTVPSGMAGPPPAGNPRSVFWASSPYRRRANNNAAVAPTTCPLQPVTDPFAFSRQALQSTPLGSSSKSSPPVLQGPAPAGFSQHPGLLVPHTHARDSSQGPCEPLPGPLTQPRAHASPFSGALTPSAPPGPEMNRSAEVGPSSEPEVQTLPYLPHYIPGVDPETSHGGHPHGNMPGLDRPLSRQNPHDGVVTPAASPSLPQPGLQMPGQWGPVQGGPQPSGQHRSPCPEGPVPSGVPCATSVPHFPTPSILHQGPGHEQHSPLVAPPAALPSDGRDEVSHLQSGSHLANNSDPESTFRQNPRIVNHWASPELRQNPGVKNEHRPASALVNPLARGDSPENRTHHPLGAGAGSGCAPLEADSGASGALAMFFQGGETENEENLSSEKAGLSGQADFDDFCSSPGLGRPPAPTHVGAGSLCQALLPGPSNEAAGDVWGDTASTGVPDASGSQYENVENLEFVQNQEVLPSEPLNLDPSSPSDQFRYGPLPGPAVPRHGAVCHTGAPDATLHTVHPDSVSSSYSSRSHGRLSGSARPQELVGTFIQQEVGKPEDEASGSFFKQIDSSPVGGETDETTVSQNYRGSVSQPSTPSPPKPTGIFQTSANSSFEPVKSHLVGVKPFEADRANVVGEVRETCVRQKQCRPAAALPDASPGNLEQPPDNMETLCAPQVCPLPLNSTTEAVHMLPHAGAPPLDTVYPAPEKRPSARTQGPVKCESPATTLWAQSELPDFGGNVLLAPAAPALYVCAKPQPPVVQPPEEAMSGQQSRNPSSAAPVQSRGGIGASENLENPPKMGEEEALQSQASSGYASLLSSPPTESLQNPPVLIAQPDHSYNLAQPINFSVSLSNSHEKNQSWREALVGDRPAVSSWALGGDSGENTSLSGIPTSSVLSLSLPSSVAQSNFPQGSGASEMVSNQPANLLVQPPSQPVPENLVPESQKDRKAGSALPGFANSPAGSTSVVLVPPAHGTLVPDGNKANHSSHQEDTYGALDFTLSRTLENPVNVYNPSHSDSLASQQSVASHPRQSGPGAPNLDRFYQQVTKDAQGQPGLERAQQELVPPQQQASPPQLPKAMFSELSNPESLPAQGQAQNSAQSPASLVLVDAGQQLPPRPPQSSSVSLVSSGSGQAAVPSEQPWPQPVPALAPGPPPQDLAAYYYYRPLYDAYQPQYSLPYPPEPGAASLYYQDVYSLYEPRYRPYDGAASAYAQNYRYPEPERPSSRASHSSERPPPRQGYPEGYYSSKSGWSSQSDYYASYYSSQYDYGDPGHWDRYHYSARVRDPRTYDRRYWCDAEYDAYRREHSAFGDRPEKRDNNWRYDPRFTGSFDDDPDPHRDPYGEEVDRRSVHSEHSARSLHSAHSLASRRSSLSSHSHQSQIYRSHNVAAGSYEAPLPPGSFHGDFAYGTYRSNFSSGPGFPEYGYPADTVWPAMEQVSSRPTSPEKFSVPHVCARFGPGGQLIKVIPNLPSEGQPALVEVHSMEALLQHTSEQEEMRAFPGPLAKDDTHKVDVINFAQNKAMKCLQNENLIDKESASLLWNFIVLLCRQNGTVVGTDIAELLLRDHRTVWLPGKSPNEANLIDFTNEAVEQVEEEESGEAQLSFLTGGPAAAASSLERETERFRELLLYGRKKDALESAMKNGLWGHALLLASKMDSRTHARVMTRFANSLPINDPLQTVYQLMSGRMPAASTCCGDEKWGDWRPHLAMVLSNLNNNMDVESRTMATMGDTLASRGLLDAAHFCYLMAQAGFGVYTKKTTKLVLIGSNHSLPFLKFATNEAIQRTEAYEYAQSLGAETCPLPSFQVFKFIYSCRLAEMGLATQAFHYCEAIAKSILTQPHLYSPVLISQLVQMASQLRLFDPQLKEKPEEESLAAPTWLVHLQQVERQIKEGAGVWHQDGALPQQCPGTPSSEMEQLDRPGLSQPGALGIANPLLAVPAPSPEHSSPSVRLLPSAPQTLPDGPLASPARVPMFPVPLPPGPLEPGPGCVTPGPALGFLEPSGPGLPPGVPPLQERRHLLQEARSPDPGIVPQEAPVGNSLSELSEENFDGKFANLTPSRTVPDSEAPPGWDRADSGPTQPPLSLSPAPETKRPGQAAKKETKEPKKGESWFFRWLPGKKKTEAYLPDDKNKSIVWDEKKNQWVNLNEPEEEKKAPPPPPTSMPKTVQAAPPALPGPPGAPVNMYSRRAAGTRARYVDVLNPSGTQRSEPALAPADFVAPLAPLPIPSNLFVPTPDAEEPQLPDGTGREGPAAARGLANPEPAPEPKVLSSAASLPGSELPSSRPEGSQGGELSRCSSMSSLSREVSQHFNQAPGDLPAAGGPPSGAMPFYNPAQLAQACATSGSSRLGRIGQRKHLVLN

T1: TurboID-Sec13, P55735
T1 chain: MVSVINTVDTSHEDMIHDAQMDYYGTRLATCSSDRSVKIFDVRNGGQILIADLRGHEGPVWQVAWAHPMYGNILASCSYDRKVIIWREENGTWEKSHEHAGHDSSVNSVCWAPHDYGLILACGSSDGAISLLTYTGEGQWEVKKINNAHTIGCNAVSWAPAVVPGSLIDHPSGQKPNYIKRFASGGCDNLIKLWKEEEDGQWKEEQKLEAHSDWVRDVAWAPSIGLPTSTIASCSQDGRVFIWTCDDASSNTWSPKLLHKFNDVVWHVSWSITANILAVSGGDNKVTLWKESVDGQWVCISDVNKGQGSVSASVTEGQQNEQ

T2: TurboID-Sec13 (UniProt P55735)
T2 sequence: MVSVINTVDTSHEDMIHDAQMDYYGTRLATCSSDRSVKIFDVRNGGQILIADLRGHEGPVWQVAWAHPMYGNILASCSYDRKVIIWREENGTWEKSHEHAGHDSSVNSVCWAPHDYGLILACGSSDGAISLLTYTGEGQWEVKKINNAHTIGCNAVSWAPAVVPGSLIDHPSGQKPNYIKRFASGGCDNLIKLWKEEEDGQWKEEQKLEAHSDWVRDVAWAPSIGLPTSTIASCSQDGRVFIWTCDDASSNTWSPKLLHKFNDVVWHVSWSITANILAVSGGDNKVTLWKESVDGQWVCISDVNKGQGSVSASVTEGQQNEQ


Columns and labels:
[1] = molecular target: endogenous full-length Sec16 (human (endogenous in HeLa)) (UniProt O15027); assay: affinity purification with mass spectrometry
[2] = molecular target: FLAG-Sec16 (human); assay: affinity purification with mass spectrometry
[3] = molecular target: T1, TurboID-Sec13, P55735; assay: proximity labelling; conditions: remark: other sources report otherwise
[4] = molecular target: T2, TurboID-Sec13; assay: proximity labelling

| Binder | binding [1] | binding [2] | binding [3] | binding [4] |
| --- | --- | --- | --- | --- |
| Sec24A (protein, UniProt O95486 1-1093) MSQPGIPASGGAPASLQAQNGAALASGSPYTNGPVQNALLSSQESVSQGYNFQLPGSYPHPIPAKTLNPVSGQSNYGGSQGSGQTLNRPPVASNPVTPSLHSGPAPRMPLPASQNPATTPMPSSSFLPEANLPPPLNWQYNYPSTASQTNHCPRASSQPTVSGNTSLTTNHQYVSSGYPSLQNSFIKSGPSVPPLVNPPLPTTFQPGAPHGPPPAGGPPPVRALTPLTSSYRDVPQPLFNSAVNQEGITSNTNNGSMVVHSSYDEIEGGGLLATPQLTNKNPKMSRSVGYSYPSLPPGYQNTTPPGATGVPPSSLNYPSGPQAFTQTPLGANHLTTSMSGLSLQPEGLRVVNLLQERNMLPSTPLKPPVPNLHEDIQKLNCNPELFRCTLTSIPQTQALLNKAKLPLGLLLHPFKDLVQLPVVTSSTIVRCRSCRTYINPFVSFLDQRRWKCNLCYRVNDVPEEFLYNPLTRVYGEPHRRPEVQNATIEFMAPSEYMLRPPQPPVYLFVFDVSHNAVETGYLNSVCQSLLDNLDLLPGNTRTKIGFITFDSTIHFYGLQESLSQPQMLIVSDIEDVFIPMPENLLVNLNESKELVQDLLKTLPQMFTKTLETQSALGPALQAAFKLMSPTGGRMSVFQTQLPTLGVGALKPREEPNHRSSAKDIHMTPSTDFYKKLALDCSGQQVAVDLFLLSGQYSDLASLGCISRYSAGSVYYYPSYHHQHNPVQVQKLQKELQRYLTRKIGFEAVMRIRCTKGLSIHTFHGNFFVRSTDLLSLPNVNPDAGYAVQMSVEESLTDTQLVSFQSALLYTSSKGERRIRVHTLCLPVVSTLNDVFLGADVQAISGLLANMAVDRSMTASLSDARDALVNAVIDSLSAYRSSVLSNQQPGLMVPFSLRLFPLFVLALLKQKSFQTGTNARLDERIFAMCQVKNQPLVYLMLTTHPSLYRVDNLSDEGALNISDRTIPQPPILQLSVEKLSRDGAFLMDAGSVLMLWVGKNCTQNFLSQVLGVQNYASIPQPMTDLPELDTPESARIIAFISWLREQRPFFPILYVIRDESPMKANFLQNMIEDRTESALSYYEFLLHIQQQVNK | binds | binds | – | binds |
| Sec23B, Q15437 1-767 (protein) MATYLEFIQQNEERDGVRFSWNVWPSSRLEATRMVVPLACLLTPLKERPDLPPVQYEPVLCSRPTCKAVLNPLCQVDYRAKLWACNFCFQRNQFPPAYGGISEVNQPAELMPQFSTIEYVIQRGAQSPLIFLYVVDTCLEEDDLQALKESLQMSLSLLPPDALVGLITFGRMVQVHELSCEGISKSYVFRGTKDLTAKQIQDMLGLTKPAMPMQQARPAQPQEHPFASSRFLQPVHKIDMNLTDLLGELQRDPWPVTQGKRPLRSTGVALSIAVGLLEGTFPNTGARIMLFTGGPPTQGPGMVVGDELKIPIRSWHDIEKDNARFMKKATKHYEMLANRTAANGHCIDIYACALDQTGLLEMKCCANLTGGYMVMGDSFNTSLFKQTFQRIFTKDFNGDFRMAFGATLDVKTSRELKIAGAIGPCVSLNVKGPCVSENELGVGGTSQWKICGLDPTSTLGIYFEVVNQHNTPIPQGGRGAIQFVTHYQHSSTQRRIRVTTIARNWADVQSQLRHIEAAFDQEAAAVLMARLGVFRAESEEGPDVLRWLDRQLIRLCQKFGQYNKEDPTSFRLSDSFSLYPQFMFHLRRSPFLQVFNNSPDESSYYRHHFARQDLTQSLIMIQPILYSYSFHGPPEPVLLDSSSILADRILLMDTFFQIVIYLGETIAQWRKAGYQDMPEYENFKHLLQAPLDDAQEILQARFPMPRYINTEHGGSQARFLLSKVNPSQTHNNLYAWGQETGAPILTDDVSLQVFMDHLKKLAVSSAC | – | – | binds | – |

Continued, values first:

| binding [1] | binding [2] | binding [3] | binding [4] | Binder |
| --- | --- | --- | --- | --- |
| binds | binds | – | – | Sec24B (protein, UniProt O95487 1-1268) MSAPAGSSHPAASARIPPKFGGAAVSGAAAPAGPGAGPAPHQQNGPAQNQMQVPSGYGLHHQNYIAPSGHYSQGPGKMTSLPLDTQCGDYYSALYTVPTQNVTPNTVNQQPGAQQLYSRGPPAPHIVGSTLGSFQGAASSASHLHTSASQPYSSFVNHYNSPAMYSASSSVASQGFPSTCGHYAMSTVSNAAYPSVSYPSLPAGDTYGQMFTSQNAPTVRPVKDNSFSGQNTAISHPSPLPPLPSQQHHQQQSLSGYSTLTWSSPGLPSTQDNLIRNHTGSLAVANNNPTITVADSLSCPVMQNVQPPKSSPVVSTVLSGSSGSSSTRTPPTANHPVEPVTSVTQPSELLQQKGVQYGEYVNNQASSAPTPLSSTSDDEEEEEEDEEAGVDSSSTTSSASPMPNSYDALEGGSYPDMLSSSASSPAPDPAPEPDPASAPAPASAPAPVVPQPSKMAKPFGYGYPTLQPGYQNATAPLISGVQPSNPVYSGFQQYPQQYPGVNQLSSSIGGLSLQSSPQPESLRPVNLTQERNILPMTPVWAPVPNLNADLKKLNCSPDSFRCTLTNIPQTQALLNKAKLPLGLLLHPFRDLTQLPVITSNTIVRCRSCRTYINPFVSFIDQRRWKCNLCYRVNDVPEEFMYNPLTRSYGEPHKRPEVQNSTVEFIASSDYMLRPPQPAVYLFVLDVSHNAVEAGYLTILCQSLLENLDKLPGDSRTRIGFMTFDSTIHFYNLQEGLSQPQMLIVSDIDDVFLPTPDSLLVNLYESKELIKDLLNALPNMFTNTRETHSALGPALQAAFKLMSPTGGRVSVFQTQLPSLGAGLLQSREDPNQRSSTKVVQHLGPATDFYKKLALDCSGQQTAVDLFLLSSQYSDLASLACMSKYSAGCIYYYPSFHYTHNPSQAEKLQKDLKRYLTRKIGFEAVMRIRCTKGLSMHTFHGNFFVRSTDLLSLANINPDAGFAVQLSIEESLTDTSLVCFQTALLYTSSKGERRIRVHTLCLPVVSSLADVYAGVDVQAAICLLANMAVDRSVSSSLSDARDALVNAVVDSLSAYGSTVSNLQHSALMAPSSLKLFPLYVLALLKQKAFRTGTSTRLDDRVYAMCQIKSQPLVHLMKMIHPNLYRIDRLTDEGAVHVNDRIVPQPPLQKLSAEKLTREGAFLMDCGSVFYIWVGKGCDNNFIEDVLGYTNFASIPQKMTHLPELDTLSSERARSFITWLRDSRPLSPILHIVKDESPAKAEFFQHLIEDRTEAAFSYYEFLLHVQQQICK |
| – | – | binds | – | Sec24B, O95487 1-1268 (protein) MSAPAGSSHPAASARIPPKFGGAAVSGAAAPAGPGAGPAPHQQNGPAQNQMQVPSGYGLHHQNYIAPSGHYSQGPGKMTSLPLDTQCGDYYSALYTVPTQNVTPNTVNQQPGAQQLYSRGPPAPHIVGSTLGSFQGAASSASHLHTSASQPYSSFVNHYNSPAMYSASSSVASQGFPSTCGHYAMSTVSNAAYPSVSYPSLPAGDTYGQMFTSQNAPTVRPVKDNSFSGQNTAISHPSPLPPLPSQQHHQQQSLSGYSTLTWSSPGLPSTQDNLIRNHTGSLAVANNNPTITVADSLSCPVMQNVQPPKSSPVVSTVLSGSSGSSSTRTPPTANHPVEPVTSVTQPSELLQQKGVQYGEYVNNQASSAPTPLSSTSDDEEEEEEDEEAGVDSSSTTSSASPMPNSYDALEGGSYPDMLSSSASSPAPDPAPEPDPASAPAPASAPAPVVPQPSKMAKPFGYGYPTLQPGYQNATAPLISGVQPSNPVYSGFQQYPQQYPGVNQLSSSIGGLSLQSSPQPESLRPVNLTQERNILPMTPVWAPVPNLNADLKKLNCSPDSFRCTLTNIPQTQALLNKAKLPLGLLLHPFRDLTQLPVITSNTIVRCRSCRTYINPFVSFIDQRRWKCNLCYRVNDVPEEFMYNPLTRSYGEPHKRPEVQNSTVEFIASSDYMLRPPQPAVYLFVLDVSHNAVEAGYLTILCQSLLENLDKLPGDSRTRIGFMTFDSTIHFYNLQEGLSQPQMLIVSDIDDVFLPTPDSLLVNLYESKELIKDLLNALPNMFTNTRETHSALGPALQAAFKLMSPTGGRVSVFQTQLPSLGAGLLQSREDPNQRSSTKVVQHLGPATDFYKKLALDCSGQQTAVDLFLLSSQYSDLASLACMSKYSAGCIYYYPSFHYTHNPSQAEKLQKDLKRYLTRKIGFEAVMRIRCTKGLSMHTFHGNFFVRSTDLLSLANINPDAGFAVQLSIEESLTDTSLVCFQTALLYTSSKGERRIRVHTLCLPVVSSLADVYAGVDVQAAICLLANMAVDRSVSSSLSDARDALVNAVVDSLSAYGSTVSNLQHSALMAPSSLKLFPLYVLALLKQKAFRTGTSTRLDDRVYAMCQIKSQPLVHLMKMIHPNLYRIDRLTDEGAVHVNDRIVPQPPLQKLSAEKLTREGAFLMDCGSVFYIWVGKGCDNNFIEDVLGYTNFASIPQKMTHLPELDTLSSERARSFITWLRDSRPLSPILHIVKDESPAKAEFFQHLIEDRTEAAFSYYEFLLHVQQQICK |
